Laboratory results published in article PMC7819943, “Rice protein-binding microarrays: a tool to detect cis-acting elements near promoter regions in rice”.
The list shows a part of the results.

Each sequence was assayed against T1, OsSMF1 (Oryza sativa, UniProt Q6ZLB0 1-436) (assay: protein-binding microarray (RPBM); PBS, 2% BSA, 51.3 ng/ul salmon testes DNA, 50 uM zinc acetate, 200 nM TF, 25 C, 1 h; high values mean tight binding). Settings: protein: recombinant; tags: N-terminal polyhistidine and DsRed monomer fusion (pET32a); chain copies: 2; label: CyDye5-dUTP incorporated in the synthesized complementary strand; 3' TTTTT single-stranded linker to array surface; dsDNA, one strand shown.
T1 sequence: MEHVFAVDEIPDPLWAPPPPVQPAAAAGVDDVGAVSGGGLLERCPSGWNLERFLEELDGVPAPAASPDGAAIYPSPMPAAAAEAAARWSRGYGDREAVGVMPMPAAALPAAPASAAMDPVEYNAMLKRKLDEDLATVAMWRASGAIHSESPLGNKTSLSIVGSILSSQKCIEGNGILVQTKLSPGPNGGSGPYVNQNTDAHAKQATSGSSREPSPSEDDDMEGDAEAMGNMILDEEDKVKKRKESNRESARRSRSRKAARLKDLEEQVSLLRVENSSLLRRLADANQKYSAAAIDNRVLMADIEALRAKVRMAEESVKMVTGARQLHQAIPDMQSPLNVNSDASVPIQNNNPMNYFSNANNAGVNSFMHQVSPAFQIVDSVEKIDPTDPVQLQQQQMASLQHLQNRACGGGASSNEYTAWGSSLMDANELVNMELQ
In short: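 Transcription factors, each fused N-terminally to a polyhistidine tag and DsRed, were expressed in E. coli BL21-CodonPlus and purified on Ni–NTA. A custom Agilent array was made double-stranded by primer extension with Cy5-dUTP and blocked with 2% BSA. It was incubated with 200 nM protein in PBS, 2% BSA, salmon testes DNA and 50 µM zinc acetate at 25 °C for 1 h, then washed. The binding signal is per-feature fluorescence intensity (arbitrary units) read on an Axon 4000B scanner.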

Sequence	binding signal
GAATAGAAAACGTAAAACCGTAGTGACAAAGCAGCCCGCGCGGAGTCACCTAGTGCAG	4370 fluorescence intensity (a.u.)
AAAGCTTGTGTCTACAAATAGGTTACTTGTTCCTGGCCATCGGAGTCACCTAGTGCAG	20200 fluorescence intensity (a.u.)
ATTTAACTGCATAGAAGTGTATAAGTAAAATAATTTATTCCGGAGTCACCTAGTGCAG	4320 fluorescence intensity (a.u.)
GGGCTTGCCCATTACGCGTTGCTATAGACGCCCTTTCATTCGGAGTCACCTAGTGCAG	41600 fluorescence intensity (a.u.)
ACGTGGTGGTGGACGTCTGCTCCCGTCAGCAAGGAGATCCCGGAGTCACCTAGTGCAG	4500 fluorescence intensity (a.u.)
TAAACACAGCCTTTGATGTAATGGGAATGTTGAAAGTTCGCGGAGTCACCTAGTGCAG	6410 fluorescence intensity (a.u.)
GTAGGAGAGGACACGTGAACTCGTCCCGCGTGGTCGTGTACGGAGTCACCTAGTGCAG	3710 fluorescence intensity (a.u.)
TATATTATTATGTGTATATGTGACGTACGTGCAGCCAACTCGGAGTCACCTAGTGCAG	4280 fluorescence intensity (a.u.)
CATCAGAACACTGCCAGGTGGGCCACCGTGTCGTGTGGGCCGGAGTCACCTAGTGCAG	3500 fluorescence intensity (a.u.)
AAATACCACCCCTCCTGCTCAACCTCTCTCACCCATCATCCGGAGTCACCTAGTGCAG	3160 fluorescence intensity (a.u.)
ATTTCATAATATTTAAAATCCAAATTCCACGTAATTTATACGGAGTCACCTAGTGCAG	3430 fluorescence intensity (a.u.)
CTTATGCTAAGTTGGGGTCGGGGAGACTGGGGAGCTTCTCCGGAGTCACCTAGTGCAG	4020 fluorescence intensity (a.u.)
ACCAAATATGGGCCAGGTCAACGAGCCGAGGTCAACATGTCGGAGTCACCTAGTGCAG	3540 fluorescence intensity (a.u.)
GCCCTTTCACAAATATCTGCGTCATCACCGTCGACATCGCCGGAGTCACCTAGTGCAG	6580 fluorescence intensity (a.u.)
ACCGCAATGATTCACTTAAACAAGTTCATGGGTCTTAACGCGGAGTCACCTAGTGCAG	3620 fluorescence intensity (a.u.)
TGCCATAAAGCGTGTTTGCTGACTAGCTAAAGTATGCAAACGGAGTCACCTAGTGCAG	3540 fluorescence intensity (a.u.)
TGCCAACGGCGCCACGCCACCAACCTCCGATCGATCGATCCGGAGTCACCTAGTGCAG	4610 fluorescence intensity (a.u.)
GACGACCCTGACAGGTGGGGCCCACCTGTCAGCGGGCGGACGGAGTCACCTAGTGCAG	3640 fluorescence intensity (a.u.)
GCCCATAAAACCGTGCCACCAGGCTAATCCAATCACCGAGCGGAGTCACCTAGTGCAG	3180 fluorescence intensity (a.u.)
AGTTCTTGCTGACATACTTGATCTCCAGGATCTCTTCCACCGGAGTCACCTAGTGCAG	4550 fluorescence intensity (a.u.)
TCTCGTTATTGCTTCGTCAAGCCAAATATTGACTGCTGGTCGGAGTCACCTAGTGCAG	3350 fluorescence intensity (a.u.)

Sequence	binding signal
GATTTTCTCTGTCTGCTCGGCTGCTCGCTTGCTTGCGCTGCGGAGTCACCTAGTGCAG	3710 fluorescence intensity (a.u.)
GGGAGATCGAGTCAGACACGTACTACTGCACTAGAGCAAACGGAGTCACCTAGTGCAG	5570 fluorescence intensity (a.u.)
CGAAGCCGTAGTCCGCCACGGAGGCGGTCCTCGCCGACGCCGGAGTCACCTAGTGCAG	3890 fluorescence intensity (a.u.)
CGGAGAGAGATCGCCCGCCACGTCACCACGCCACACCCCACGGAGTCACCTAGTGCAG	38300 fluorescence intensity (a.u.)
CTTGTTACTCACAGTCTCCGTCTCTCCATCAAAACAACCACGGAGTCACCTAGTGCAG	3320 fluorescence intensity (a.u.)
AAACGGAAGCTCACCTTCCCACCGCCACGTCCCGGCTCCCCGGAGTCACCTAGTGCAG	8770 fluorescence intensity (a.u.)
ATCCCCAATATCAGTAGGTGAGCATCATCTAAATTGCATTCGGAGTCACCTAGTGCAG	3390 fluorescence intensity (a.u.)
CCGAGTGACGATGCAGCTGAGTCGGAGCGCAGCACGACTTCGGAGTCACCTAGTGCAG	4290 fluorescence intensity (a.u.)
GCGGCTGACGAGGAAGACGACGACACGAGTCACGGGAGTGCGGAGTCACCTAGTGCAG	4210 fluorescence intensity (a.u.)
CTCGGATTCTCCGGCGTGGAGAGTTTGGGCAGAACACCAGCGGAGTCACCTAGTGCAG	3470 fluorescence intensity (a.u.)
ATTGGATGCATGTATTACATTTATTAGATTAATCCAAATTCGGAGTCACCTAGTGCAG	30100 fluorescence intensity (a.u.)
AAGCCAACCAACAAGACGAGGCGAACGTCACGCACGCACGCGGAGTCACCTAGTGCAG	3500 fluorescence intensity (a.u.)
ATCTGAACATAACATATGCCAAAATTTACAGCTTGAAGTTCGGAGTCACCTAGTGCAG	19000 fluorescence intensity (a.u.)
GGCCTTCCCCATCCCCATCTCTCATCAGCCGCAAACTGCTCGGAGTCACCTAGTGCAG	32700 fluorescence intensity (a.u.)
TTTTGTTTCACCATTTCGGCTCACTCCATAGGACATGGAACGGAGTCACCTAGTGCAG	3520 fluorescence intensity (a.u.)
CTTGGTCTGTGTTTCAGGCTAAAATATGAAGATCAAACTTCGGAGTCACCTAGTGCAG	6470 fluorescence intensity (a.u.)
AGGAATCTTGCCTGACGAAACTTGCCTGAGTCAGGCGTAGCGGAGTCACCTAGTGCAG	5150 fluorescence intensity (a.u.)
AATAAACCATGGTGTTTGTATTGGTGTGTTGGTGACTACGCGGAGTCACCTAGTGCAG	3880 fluorescence intensity (a.u.)
GTAGGTGACATGTGTGGTGTCACACTGACTCAGCCATCACCGGAGTCACCTAGTGCAG	10600 fluorescence intensity (a.u.)
TTTAATAAAATCACATATTTGTTAATACTTTTATATATTTCGGAGTCACCTAGTGCAG	23800 fluorescence intensity (a.u.)
AGTTATCTACATACCATCTAAATATGACGTGGAAAGATTACGGAGTCACCTAGTGCAG	14600 fluorescence intensity (a.u.)

At a glance, part of the list above:
Sequence	binding signal
AAACGGAAGCTCACCTTCCCACCGCCACGTCCCGGCTCCCCGGAGTCACCTAGTGCAG	8770 fluorescence intensity (a.u.)
ATCCCCAATATCAGTAGGTGAGCATCATCTAAATTGCATTCGGAGTCACCTAGTGCAG	3390 fluorescence intensity (a.u.)
CCGAGTGACGATGCAGCTGAGTCGGAGCGCAGCACGACTTCGGAGTCACCTAGTGCAG	4290 fluorescence intensity (a.u.)
GCGGCTGACGAGGAAGACGACGACACGAGTCACGGGAGTGCGGAGTCACCTAGTGCAG	4210 fluorescence intensity (a.u.)

More records follow.

Sequence	binding signal
TTACTACTAGCTTTGTCATGTACTGGCATTTGCATCCGTACGGAGTCACCTAGTGCAG	3900 fluorescence intensity (a.u.)
ATTCAACAGTCACCACCAGCTAATCCCTTTCAACTTGCCACGGAGTCACCTAGTGCAG	4450 fluorescence intensity (a.u.)
AAAGGAGAGGCAGAAGCAGCGTCATCGACGACGACGCCATCGGAGTCACCTAGTGCAG	4440 fluorescence intensity (a.u.)
GCACGGGCTCAACACTAGTCATGTCGTTCTGTGGGCTGGGCGGAGTCACCTAGTGCAG	3300 fluorescence intensity (a.u.)
AGGGAGATGGACGTACGGCGTCACCGCCGCGTCGACGGACCGGAGTCACCTAGTGCAG	7110 fluorescence intensity (a.u.)
GTGGGCCCCGCGGTCGCCTGGTCCCACATGTCAGTAATGCCGGAGTCACCTAGTGCAG	3190 fluorescence intensity (a.u.)
TTGATGGCGATCTGCGAGGCCGTGCGGGTCACGGAGCGCGCGGAGTCACCTAGTGCAG	30900 fluorescence intensity (a.u.)
AAAACGCCCAATACGTACACCGCGCCCGCGTCACGTCACCCGGAGTCACCTAGTGCAG	6660 fluorescence intensity (a.u.)
GCCGCCGCCATCTCCCTGGCCGCGGCCACCGTCAGCGAGGCGGAGTCACCTAGTGCAG	5280 fluorescence intensity (a.u.)
ATAGCATATGGCTTATCTCATAATTCATGACATCACAAACCGGAGTCACCTAGTGCAG	3750 fluorescence intensity (a.u.)
AGTTTAGACCACTAGCTGTGTAGTCACGTCCATTTAGTAACGGAGTCACCTAGTGCAG	3300 fluorescence intensity (a.u.)
ATCAGGAAACAGTCTCTGCTTGCTTGCGTAAGCTGACGACCGGAGTCACCTAGTGCAG	6420 fluorescence intensity (a.u.)
GAAGTTCCCGTAAACGTCGACACGTCGTCCAGCTTTATCACGGAGTCACCTAGTGCAG	7300 fluorescence intensity (a.u.)
CTACAAACCACTAAATGACACACACATTTGCTATCCTGTCCGGAGTCACCTAGTGCAG	4260 fluorescence intensity (a.u.)
ATTCTTATCCTGCTTTTATATGTTTCACATCCCCTTCATACGGAGTCACCTAGTGCAG	21700 fluorescence intensity (a.u.)
CACTGAACCCACATATCATATACATATAAGGACCCACATGCGGAGTCACCTAGTGCAG	28700 fluorescence intensity (a.u.)
TGTTGATCTTGGCGATGACACGGCCACAATGATCTGCAAACGGAGTCACCTAGTGCAG	4620 fluorescence intensity (a.u.)
CGGGCCAGCTACTATTCCGGCCGCCTACGTCCGCCGTGCGCGGAGTCACCTAGTGCAG	3550 fluorescence intensity (a.u.)
AGAACGAAACAAACTCGGCATCTCCATCGTGCCATCCACCCGGAGTCACCTAGTGCAG	3420 fluorescence intensity (a.u.)
TGTGGTATGTGGAGCCAAAGCTAATGACAGGGGACCAGCACGGAGTCACCTAGTGCAG	3240 fluorescence intensity (a.u.)
TATTCATTTCCCATTGTTCTCCTCATTAGTCATTAATCTGCGGAGTCACCTAGTGCAG	3390 fluorescence intensity (a.u.)

Sequence	binding signal
TGACTTCCTCAGTCTTAGTCATTAGTGTACCCCTTGTATTCGGAGTCACCTAGTGCAG	4800 fluorescence intensity (a.u.)
ATCATTTATTTTATTATGACTTGATTCGTCATCAAATGTTCGGAGTCACCTAGTGCAG	6360 fluorescence intensity (a.u.)
TACTATACATCTGATGGCCTGGTGCAGTTCTTTGATGAAACGGAGTCACCTAGTGCAG	3620 fluorescence intensity (a.u.)
TCTCGCTTAATGTTTTCTTTACACATACGATGCTTTAGATCGGAGTCACCTAGTGCAG	3790 fluorescence intensity (a.u.)
CCCCATTTTCTTTGTTTCTACTTCTCTTTCCCTTTCTTGTCGGAGTCACCTAGTGCAG	3390 fluorescence intensity (a.u.)
TCATTAACATCAATATGAATGTGAGAAATGCTAGAATGACCGGAGTCACCTAGTGCAG	3240 fluorescence intensity (a.u.)
AGGACGGCCGACCGCGTCACCATGATGTGCCACCTCGACGCGGAGTCACCTAGTGCAG	13700 fluorescence intensity (a.u.)
GATGAGATCCCTCGTGGCATGCATTCAAGTATAGTTGGCCCGGAGTCACCTAGTGCAG	5950 fluorescence intensity (a.u.)
ATAACCTTATTCAACTTCCGACTGACATCGTGCACGTCGGCGGAGTCACCTAGTGCAG	3740 fluorescence intensity (a.u.)
GTGGATGCAGATGAGGTGTTCGATGTAATGCCGGGGTGGTCGGAGTCACCTAGTGCAG	3850 fluorescence intensity (a.u.)
CCTCCATGACGCGTCTCACCTCCGCGGCTATCTCCCCGTACGGAGTCACCTAGTGCAG	5960 fluorescence intensity (a.u.)
TGCACAATATATGCCACGCATCTTGTAACGTAGGAAATGCCGGAGTCACCTAGTGCAG	4320 fluorescence intensity (a.u.)
GTATGCATGAGAGCATGACACTAACTAGCTAGAAGAACACCGGAGTCACCTAGTGCAG	3150 fluorescence intensity (a.u.)
GATAGAACGACTCCTCAAACTATTGAAACCGGTGCAATTTCGGAGTCACCTAGTGCAG	23000 fluorescence intensity (a.u.)
GTAGTACCATGTATTAGATGGACTTCTCCACGTTTCTCTGCGGAGTCACCTAGTGCAG	4980 fluorescence intensity (a.u.)
TTTACCAACATGCCATGTGTGATATTATTGCTGAATCATCCGGAGTCACCTAGTGCAG	6790 fluorescence intensity (a.u.)
TCCAACCATATGCCGCCACGTGTCCGGGCCCCGCAAGTCACGGAGTCACCTAGTGCAG	14100 fluorescence intensity (a.u.)
TGTTAGGGTGGGGTACTGCCTACGTGGGCCAATGCCTTCTCGGAGTCACCTAGTGCAG	5710 fluorescence intensity (a.u.)
GTATATATACACGTATACAAAGTTTATATATGACGTATACCGGAGTCACCTAGTGCAG	6040 fluorescence intensity (a.u.)
TTCCTCCTTTCTCCGTCCACTCGCCGGAGTGAGTCACTCGCGGAGTCACCTAGTGCAG	10700 fluorescence intensity (a.u.)
TCCGAGGCAGATCTCCACACGTATCTCCGCACTTGACTTTCGGAGTCACCTAGTGCAG	3370 fluorescence intensity (a.u.)
